The numbers were not newly measured in patent US6391338B1, “System for rendering substantially non-dissoluble bio-affecting agents bio-available” (Biovail Technologies Ltd., priority 1995, dated 2002), which cites them from elsewhere.

For the data set the following is noted: water; cited from earlier work.

As to `CCC(C)n1ncn(-c2ccc(N3CCN(c4ccc(OCC5COC(Cn6cncn6)(c6ccc(Cl)cc6Cl)O5)cc4)CC3)cc2)c1=O` (stereo not shown) [itraconazole], the aqueous solubility result was “less than 0.0001 g/mL”.
